System: LS174 cells
Assay: Confocal fluorescence localization of compound in LS174 cells
Format: cell-based
Settings: 10 μM

SMILES: CCN(CC)c1ccc(/C=C/c2c(F)cccc2F)cc1 [4s, (E)-4-(2,6-Difluorostyryl)-N,N-diethylaniline]
- subcellular localization of compound at 2 h (2 h): localized throughout the nucleus and cytoplasm
- nuclear levels of compound after 12 h (after 12 h): decreased
